PubChem BioAssay AID602196 – INSERM | 2012

Aim: 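Modifiers of cisplatin sensitivity in A549 cells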
Cell system: human A549 lung cancer cells
Reagent: siRNA pair against human genes
Timing: 48 h transfection before cisplatin; time from cisplatin to read-out not stated
Treatment: cisplatin at a dose killing half of control-siRNA cells; exact dose and duration not given
Detection: 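Shift in cisplatin death relative to control siRNA, from -50 (all cells die) to +50 (no cells die); siRNAs harmful on their own scored 0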
Scale: two-siRNA summed score (-2 to +2): higher = both siRNAs protect from cisplatin killing; -2 means both sensitise
Active means: 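siRNAs harmful alone (LDH or WST-1) get 0; others get +1 for less and -1 for more cisplatin killing; genes are active when the two siRNAs give the same sign, summing to ±2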
Meaning of the calls: active = both siRNAs shift cisplatin killing the same way; inactive = no consistent shift, or siRNA harmful alone
Here is a random part of about 23,000 deposited reagents. 455 of them (2%) count as active. 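Active includes both protection and sensitisation; some change values fall well beyond the stated -50 to +50 range.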 Not all columns of the deposit are shown. Reagent sequences are not shown. Not stated in the record: the amount of reagent.

| gene symbol | two-siRNA summed score (-2 to +2) | activity call |
| --- | --- | --- |
| SIGLEC15 (sialic acid binding Ig like lectin 15) | -1 | inactive |
| AIG1 (androgen induced 1) | 0 | inactive |
| TSPAN32 (tetraspanin 32) | 0 | inactive |
| SPDEF (SAM pointed domain containing ETS transcription factor) | -1 | inactive |
| ARHGEF7 (Rho guanine nucleotide exchange factor 7) | 0 | inactive |
| LOC150519 (retired record) | 0 | inactive |
| UAP1 (UDP-N-acetylglucosamine pyrophosphorylase 1) | 1 | inactive |
| UMPS (uridine monophosphate synthetase) | 0 | inactive |
| PFN2 (profilin 2) | 0 | inactive |
| OR7G3 (olfactory receptor family 7 subfamily G member 3) | 0 | inactive |
| TRPC6 | 0 | inactive |
| KIF20A (kinesin family member 20A) | 1 | inactive |
| AP2B1 (adaptor related protein complex 2 subunit beta 1) | -1 | inactive |
| SULT1A3 (sulfotransferase family 1A member 3) | 0 | inactive |
| RPL19 (ribosomal protein L19) | 0 | inactive |
| LCORL (ligand dependent nuclear receptor corepressor like) | 0 | inactive |
| MICU3 (mitochondrial calcium uptake 3) | 0 | inactive |
| RASAL2 (RAS protein activator like 2) | 0 | inactive |
| HOXC10 (homeobox C10) | 0 | inactive |
| LINC01548 (long independently transcribed non-coding RNA 1548) | 0 | inactive |
| UPF3A (UPF3A regulator of nonsense mediated mRNA decay) | 0 | inactive |
| MICOS13 | -1 | inactive |
| MTARC1 (mitochondrial amidoxime reducing component 1) | 0 | inactive |

Already shown: entries from further up.
| gene symbol | two-siRNA summed score (-2 to +2) | activity call |
| --- | --- | --- |
| ARHGEF7 (Rho guanine nucleotide exchange factor 7) | 0 | inactive |
| LOC150519 (retired record) | 0 | inactive |
